Here are results for two sequences from US20130244239.

Assay in all cases: ELONA
Series [1] deals with H-GFP (His-Xpress fusion lacking T7 leader, GFP). The conditions noted are these: binds, lower than HTX and HT; protein in a lysate after overexpression; label: 3'-poly A (20) hybridised to biotin-T20.
The test system of series [2] is HT-GFP (His-T7 leader-GFP). The conditions noted are these: protein in a lysate after overexpression, label: 3'-poly A (20) hybridised to biotin-T20.
Series [3] deals with HTX-GFP (His-T7 leader-Xpress-GFP). The settings on record: HTX about equal to HT; anti-GFP capture, 4 C, tRNA competitor; protein in a lysate after overexpression; label: 3'-poly A (20) hybridised to biotin-T20.
For series [4], the system named is T-GFP (T7 leader-GFP, no His tag). The settings on record: no His tag; protein in a lysate after overexpression; protein details: T7 gene 10 leader, no His tag, GFP from TAKARA; label: 3'-poly A (20) hybridised to biotin-T20.
Series [5] concerns TX-GFP (T7 leader-Xpress-GFP, no His tag). The conditions noted are these: no His tag; protein in a lysate after overexpression; label: 3'-poly A (20) hybridised to biotin-T20.

Construct, isoform or probe ends are uncertain for at least one entry. At least one result comes from cells or an extract, where the contact may be indirect. For part of these data: A negative result means that nothing was seen under these conditions. For part of these data: The comparison behind a weaker result is the experiment's own reference, which may not be listed here.

With “GGGACGCUCACGUACGCUCACGUCCGAUCGAUACUGGUAUAUUGGCGCCUUCGUGGAAUGUCAGUGCCUGGACGUGCAGU [shot47]”, the binding result was “binds more weakly” in series [1]; “binds” in series [2]; “binds” in series [3]; “no binding” in series [4]; “no binding” in series [5].
As to “GGGUAUAUUGGCGCCUUCGUGGAAUGUCAGUGCCUGG [shot47sss]”, the binding result in series [2] (anti-GFP capture, variant of shot47) is given as “binds”.
